Experimental data reported in paper PMC4605305.

Amino acid sequences for entries named in this document (tags omitted). A change or cut given only in a name is not applied to a line headed by its entry. Residues count along the entry.
UniProt P23246, 266-365: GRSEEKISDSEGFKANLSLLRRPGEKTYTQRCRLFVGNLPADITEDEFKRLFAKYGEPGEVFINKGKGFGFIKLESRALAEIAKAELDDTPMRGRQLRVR
UniProt P23246, 266-484: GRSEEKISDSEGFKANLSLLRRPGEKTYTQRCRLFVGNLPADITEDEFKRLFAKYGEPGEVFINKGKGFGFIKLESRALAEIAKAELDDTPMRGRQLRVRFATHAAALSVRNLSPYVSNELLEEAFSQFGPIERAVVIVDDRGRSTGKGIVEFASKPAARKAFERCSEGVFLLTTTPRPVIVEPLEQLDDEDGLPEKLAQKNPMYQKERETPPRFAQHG
UniProt P23246, 299-449: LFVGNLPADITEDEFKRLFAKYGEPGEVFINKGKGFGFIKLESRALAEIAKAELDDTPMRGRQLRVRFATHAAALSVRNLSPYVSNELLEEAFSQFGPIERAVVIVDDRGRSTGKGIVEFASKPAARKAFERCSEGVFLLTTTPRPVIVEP
UniProt P14866: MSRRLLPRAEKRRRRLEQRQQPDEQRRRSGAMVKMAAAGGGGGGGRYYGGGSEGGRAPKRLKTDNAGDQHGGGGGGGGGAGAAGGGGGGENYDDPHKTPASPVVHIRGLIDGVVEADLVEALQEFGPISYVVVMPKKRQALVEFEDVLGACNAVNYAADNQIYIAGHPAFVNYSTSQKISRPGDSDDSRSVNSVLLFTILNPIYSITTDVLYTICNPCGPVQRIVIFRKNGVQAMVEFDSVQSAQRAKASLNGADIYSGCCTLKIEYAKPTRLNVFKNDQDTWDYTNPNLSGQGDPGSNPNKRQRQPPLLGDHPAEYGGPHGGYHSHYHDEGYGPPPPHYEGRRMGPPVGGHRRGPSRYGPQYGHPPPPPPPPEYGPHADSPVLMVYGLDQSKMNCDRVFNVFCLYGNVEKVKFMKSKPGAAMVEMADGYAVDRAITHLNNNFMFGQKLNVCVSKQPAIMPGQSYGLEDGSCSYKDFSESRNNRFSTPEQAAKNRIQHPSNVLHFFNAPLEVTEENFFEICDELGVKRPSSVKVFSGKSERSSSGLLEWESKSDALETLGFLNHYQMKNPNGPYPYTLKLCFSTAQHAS

How the values were obtained:
PSF exRRM1 (human) = PSF exRRM1 (human) (UniProt P23246); test: EMSA; conditions: little ability to bind; EMSA: similar plus RNasin, 1 mM DTT, 10 mM KCl, then 0.5 ug/ul heparin. Fig S3 prints seven relative Kd values (1.8, 1.3, 3.2, 1.4, 1.2, 1.3); recombinant protein; residues 266-365; protein details: 6xHis-FLAG N-term; label: uniform 32P
PSF exRRMs (human) [1] = target: PSF exRRMs (human) (UniProt P23246); test: UV crosslinking; conditions: lower affinity than full-length PSF; UV crosslinking: 12 mM Tris pH 7.5, 120 mM NaCl, 3 mM MgCl2, 1 mM ATP, 20 mM phosphocreatine, 0.1 mM EDTA, 12% glycerol, 1.3% PVA, 25 ng/ul yeast tRNA, 20 ng/ul BSA; recombinant protein; residues 266-484; protein details: 6xHis-FLAG N-term; label: uniform 32P
PSF minRRMs (human) = PSF minRRMs (human) (UniProt P23246); test: UV crosslinking; conditions: UV crosslinking: 12 mM Tris pH 7.5, 120 mM NaCl, 3 mM MgCl2, 1 mM ATP, 20 mM phosphocreatine, 0.1 mM EDTA, 12% glycerol, 1.3% PVA, 25 ng/ul yeast tRNA, 20 ng/ul BSA; recombinant protein; residues 299-449; protein details: 6xHis-FLAG N-term; label: uniform 32P
hnRNP L = hnRNP L (UniProt P14866); test: UV crosslinking; conditions: UV crosslinking: 12 mM Tris pH 7.5, 120 mM NaCl, 3 mM MgCl2, 1 mM ATP, 20 mM phosphocreatine, 0.1 mM EDTA, 12% glycerol, 1.3% PVA, 25 ng/ul yeast tRNA, 20 ng/ul BSA; recombinant protein; protein details: 6xHis; label: uniform 32P
PSF exRRMs (human) [2] = target: PSF exRRMs (human) (UniProt P23246); test: UV crosslinking competition; conditions: EMSA: similar plus RNasin, 1 mM DTT, 10 mM KCl, then 0.5 ug/ul heparin. Fig S3 prints seven relative Kd values (1.8, 1.3, 3.2, 1.4, 1.2, 1.3), recombinant protein, residues 266-484, protein details: 6xHis-FLAG N-term, label: uniform 32P
[3] = target: PSF full-length (PSF-FL) (human) (UniProt P23246); test: UV crosslinking competition; conditions: FLAG-TRAP150 full-length, near complete inhibition at equimolar; EMSA: similar plus RNasin, 1 mM DTT, 10 mM KCl, then 0.5 ug/ul heparin. Fig S3 prints seven relative Kd values (1.8, 1.3, 3.2, 1.4, 1.2, 1.3); recombinant protein; residues 1-707; protein details: 6xHis-FLAG N-term; label: uniform 32P

## ACGCGUCCACUUUCAAGUGACCCCUUACCUACUCACACCACUGCAUUCUCACCCGCAAGCACCUUUGACGCGU [ESS1]
PSF exRRM1 (human)
  binding result: binds more weakly
PSF exRRMs (human) [1]
  binding result: binds more weakly
PSF minRRMs (human)
  binding result: binds
hnRNP L
  binding result: binds
PSF exRRMs (human) [2]; GST-TRAP150 266-755, near complete inhibition at equimolar
  binding result: binds more weakly
PSF exRRMs (human) [2]; GST-TRAP150 PID (686-755), near complete inhibition at equimolar
  binding result: binds more weakly
PSF exRRMs (human) [2]; GST-TRAP150 deltaN (266-955), near complete inhibition at equimolar
  binding result: binds more weakly
[3]
  binding result: binds more weakly

For some assays here: Weaker means in comparison with the reference protein, sequence or condition of that experiment. For some assays here: The exact form of at least one protein or probe is not confirmed. For some assays here: At least one verdict was read from the data and is not stated in words by the source.
